{"source": "patent US11976334B2", "about": "“Inhibitor of ATR kinase for use in a method of treating a hyper-proliferative disease” (Bayer Aktiengesellschaft, priority 2017, dated 2024)", "tested_on": "isogenic cell lines derived from DT40 chicken lymphoma cells"}
{"compound": "C[C@@H]1COCCN1c1cc(-c2ccnn2C)c2ccnc(-c3ccn[nH]3)c2n1", "note": "[Compound A, 2-[(3R)-3-methylmorpholin-4-yl]-4-(1-methyl-1H-pyrazol-5-yl)-8-(1H-pyrazol-5-yl)-1,7-naphthyridine]", "values": [{"measurement": "sensitivity towards Compound A as compared to wild-type cells", "setting": "DT40 cells deficient in TP53BP1, RAD9A, RAD17, H2AFX, RAD52, BRCA1, BRCA2, UBE2N, PCNA, PARP1, TDP2, FANCD2, FANCG, POLL, POLL/POLB, REV3L, FEN1, XPA, ERCC5 or BLM", "result": "≥ 2", "unit": "fold"}, {"measurement": "strongest effects (sensitization versus wild-type)", "setting": "PCNA, FEN1, H2AFX, BRCA1 deficient DT40 cells", "result": "> 8", "unit": "fold"}, {"measurement": "strong sensitizations versus wild-type", "setting": "RAD17, PARP1, FANCD2, UBE2N, RAD9A, REV3L, TP53BP1, ERCC5 and BLM deficient DT40 cells", "result": "> 4", "unit": "fold"}]}
